Experimental data reported in US8414760B2, “Biosensor electrode mediators for regeneration of cofactors” (priority 1997, dated 2013).
Some results were stated once for a whole list of compounds, not compound by compound. For at least one compound, name, drawing or mass did not settle the structure.

Tested on: D-3-Hydroxybutyrate dehydrogenase (HBDH)
Experiment: Assessment of mediator inhibition of D-3-hydroxybutyrate dehydrogenase (assay rate before and after filtration)
Type: biochemical, Pseudomonas sp.
Set-up: concentration or dose not given beside the values
Conditions: compared with control (no mediator)
Method: D-3-Hydroxybutyrate dehydrogenase (HBDH; EC 1.1.1.30) from Pseudomonas sp. was purchased from Toyobo Co., Ltd. p-Nicotinamide adenine dinucleotide (NAD^+) and D,L-3-hydroxybutyric acid were supplied by Boehringer Mannheim.
A series of 18 solutions (2.5 ml each) were prepared, each containing 50 U/ml HBDH and 1.29 or 2.58 mg of the following NAD(P)H mediators: MB(3), 4-Me-BQ(4), 1-Me0-PMS (5), DCIP(6), 1,10-PQ(7), 1,7-PQ(8), 2,9-Me2-1,10-PQ(10), 1-Me-1,10-PQ^+ (11), and [Ru(bpy)2(1,10-PQ)](PF6)2 (12) in Tris buffer (50 mM, pH 8.2). A control solution was also prepared, containing enzyme but no mediator. The solutions were incubated for 0.5 hours at 37.5 C, then assayed (in triplicate) for NADH at 340 nm, using a Sigma Diagnostics D-3-hydroxybutyrate kit. The extent of the interference of the added mediator with the assay rate compared to the control afforded a quantitative measure of the mediator's efficiency as an oxidant of NADH.
The enzyme was then reisolated from the mediator solutions by filtration through a polysulfone membrane (nominal molecular weight cut-off: 30,000) in a microcentrifuge filter (Millipore). […] By comparing the results of the assays before and after filtration, the effect of any covalently and/or irreversibly bound mediator on the enzyme activity could be determined.

For “[Ru(bpy)2(1,10-PQ)] (PF6)2 [[Ru(bpy)2(1,10-PQ)](PF6)2]”, the “Residual enzyme activity after filtration (percentage of the original activity)” value was “over 90%”.

With `C[n+]1cccc2c1-c1ncccc1C(=O)C2=O.O=S(=O)([O-])C(F)(F)F` [1-Me-1,10-PQ^+, 1-Me-1,10-phenanthrolinium quinone trifluoromethane sulphonate] the “Residual enzyme activity after filtration (percentage of the original activity)” value (listed as 1-MeO-1,10-PQ) was “over 90%”.
